Experimental data reported in paper PMC3521008.

Sequences of proteins named here, by UniProt entry; tags and fusion partners are left off. A change or cut given only in a name is not applied to a line headed by its entry.
UniProt O75081: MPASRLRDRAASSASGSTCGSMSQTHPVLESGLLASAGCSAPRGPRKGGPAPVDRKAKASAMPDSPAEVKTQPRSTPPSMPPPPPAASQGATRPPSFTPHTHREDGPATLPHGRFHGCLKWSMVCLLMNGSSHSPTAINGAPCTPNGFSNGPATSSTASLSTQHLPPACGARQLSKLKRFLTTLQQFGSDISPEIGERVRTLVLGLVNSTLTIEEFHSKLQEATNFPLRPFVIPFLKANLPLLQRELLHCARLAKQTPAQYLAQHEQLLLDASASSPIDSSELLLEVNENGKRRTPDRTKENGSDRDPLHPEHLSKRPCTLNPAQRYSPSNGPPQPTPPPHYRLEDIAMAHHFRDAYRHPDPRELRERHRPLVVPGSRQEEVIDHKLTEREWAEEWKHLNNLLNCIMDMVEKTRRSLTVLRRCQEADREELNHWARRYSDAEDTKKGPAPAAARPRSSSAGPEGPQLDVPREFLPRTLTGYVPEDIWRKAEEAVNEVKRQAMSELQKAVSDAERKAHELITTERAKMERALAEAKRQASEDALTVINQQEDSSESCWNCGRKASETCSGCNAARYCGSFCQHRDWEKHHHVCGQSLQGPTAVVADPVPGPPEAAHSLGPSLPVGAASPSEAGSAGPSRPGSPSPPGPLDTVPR

Tests used:
Assay in all cases: two-hybrid; directed assay in the pGAD-GW/pGBT9-GW system: Kaiso 298-573 with MTG16 and MTG16 deletion constructs; growth on quadruple-dropout plates (-leu, -trp, -his, -ala); empty vector bait as negative control; in triplicate
[1] = target: MTG16 Δ5N (yeast two-hybrid construct)
[2] = target: MTG16 ΔNHR1 (yeast two-hybrid construct) (UniProt O75081)
[3] = target: MTG16 Δ7N (yeast two-hybrid construct)

Measured: binding

B1: Kaiso amino acids 298-573 (yeast two-hybrid clone) (domain or fragment, UniProt Q86T24 298-573)
chain: LPNHMPSSINLLVQNQQTPNSAILTGNKANEEEEEEIIDDDDDTISSSPDSAVSNTSLVPQADTSQNTSFDGSLIQKMQIPTLLQEPLSNSLKISDIITRNTNDPGVGSKHLMEGQKIITLDTATEIEGLSTGCKVYANIGEDTYDIVIPVKDDPDEGEARLENEIPKTSGSEMANKRMKVKHDDHYELIVDGRVYYICIVCKRSYVCLTSLRRHFNIHSWEKKYPCRYCEKVFPLAEYRTKHEIHHTGERRYQCLACGKSFINYQFMSSHIKSVH
no binding: all assays above

These are yes or no findings as the source states them, for the method shown.
